Data taken from paper PMC7862291, “Full-length in meso structure and mechanism of rat kynurenine 3-monooxygenase inhibition” (Communications Biology, 2021).
Results are given in words; binding and its absence hold for the method and conditions named. Binding seen in cells or lysates may run through a third protein. Some results given as binding are weak or reduced against the parent protein; the word gives no strength.

By UniProt entry, the sequences of proteins in these tests, tags left out.
UniProt O15229: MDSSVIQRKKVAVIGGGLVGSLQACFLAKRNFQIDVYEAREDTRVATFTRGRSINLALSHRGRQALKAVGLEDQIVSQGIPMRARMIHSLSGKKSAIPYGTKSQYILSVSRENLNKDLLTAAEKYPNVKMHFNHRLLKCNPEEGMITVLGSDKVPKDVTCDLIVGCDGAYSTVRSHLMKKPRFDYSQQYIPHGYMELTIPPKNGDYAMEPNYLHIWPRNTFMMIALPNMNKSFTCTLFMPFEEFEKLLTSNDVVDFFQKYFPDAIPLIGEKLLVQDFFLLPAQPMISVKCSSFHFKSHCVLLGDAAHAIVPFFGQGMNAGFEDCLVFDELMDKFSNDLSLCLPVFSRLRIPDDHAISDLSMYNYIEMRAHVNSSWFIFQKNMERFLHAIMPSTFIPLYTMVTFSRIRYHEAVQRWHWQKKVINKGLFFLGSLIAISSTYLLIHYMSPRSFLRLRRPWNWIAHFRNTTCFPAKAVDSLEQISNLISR

Target: wild type human KMO (Hs-KMO), NanoBRET constructs (human) (UniProt O15229)
Assay: FRET or BRET; NanoBRET in HEK293T cells; HaloTag-KMO (NanoBRET 618 ligand) and NLuc-KMO co-transfected; donor 460 nm, acceptor 620 nm

binding: binds
Substance: wild type human KMO (Hs-KMO), NanoBRET constructs (from UniProt O15229 1-486) (enzyme)
